Test results published in PMC9437250.
Results are given in words; binding and its absence hold for the method and conditions named. Binding seen in cells or lysates may run through a third protein. Some entries that bind do so weakly or less than the wild type.

Chains of the proteins cited; added tags and fusions are not shown.
UniProt Q01094: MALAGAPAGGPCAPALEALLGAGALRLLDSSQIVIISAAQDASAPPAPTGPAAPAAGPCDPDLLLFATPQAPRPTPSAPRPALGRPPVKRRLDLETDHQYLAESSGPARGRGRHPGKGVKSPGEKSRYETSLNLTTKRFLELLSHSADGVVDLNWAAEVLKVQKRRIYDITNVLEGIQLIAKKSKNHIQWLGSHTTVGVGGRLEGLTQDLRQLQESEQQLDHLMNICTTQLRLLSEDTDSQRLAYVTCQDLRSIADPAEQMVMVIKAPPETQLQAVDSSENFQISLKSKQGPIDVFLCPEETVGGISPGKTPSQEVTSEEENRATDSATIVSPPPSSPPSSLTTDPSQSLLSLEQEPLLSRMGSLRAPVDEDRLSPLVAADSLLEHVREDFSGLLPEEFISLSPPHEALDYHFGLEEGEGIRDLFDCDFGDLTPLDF

Biological target: E2F1 transcription factor (human (endogenous in NCI-H460)) (UniProt Q01094)
Assay: co-IP; endogenous proteins of NCI-H460 cells; Pierce Classic Magnetic IP/Co-IP Kit; Western blot with antibodies against PRR11 and E2F1; cells with E2F1 knock-down or negative control for 48 h; group without antibody as mock control

binding: binds
B1: proline rich 11 (PRR11) (protein, UniProt Q96HE9 1-360)
chain: MPKFKQRRRKLKAKAERLFKKKEASHFQSKLITPPPPPPSPERVGISSIDISQSRSWLTSSWNFNFPNIRDAIKLWTNRVWSIYSWCQNCITQSLEVLKDTIFPSRICHRELYSVKQQFCILESKLCKLQEALKTISESSSCPSCGQTCHMSGKLTNVPACVLITPGDSKAVLPPTLPQPASHFPPPPPPPPLPPPPPPLAPVLLRKPSLAKALQAGPLKKDGPMQITVKDLLTVKLKKTQSLDEKRKLIPSPKARNPLVTVSDLQHVTLKPNSKVLSTRVTNVLITPGKSQMDLRKLLRKVDVERSPGGTPLTNKENMETGTGLTPVMTQALRRKFQLAHPRSPTPTLPLSTSSFDEQN
